Assay results: publication doi:10.1101/2020.07.25.220095
Results are given in words; binding and its absence hold for the method and conditions named. Binding seen in cells or lysates may run through a third protein. For some of these results: Where a sequence is shown, tags or fusion partners need not be part of it.

Amino acid sequences for entries named in this document (tags omitted).
UniProt P38697: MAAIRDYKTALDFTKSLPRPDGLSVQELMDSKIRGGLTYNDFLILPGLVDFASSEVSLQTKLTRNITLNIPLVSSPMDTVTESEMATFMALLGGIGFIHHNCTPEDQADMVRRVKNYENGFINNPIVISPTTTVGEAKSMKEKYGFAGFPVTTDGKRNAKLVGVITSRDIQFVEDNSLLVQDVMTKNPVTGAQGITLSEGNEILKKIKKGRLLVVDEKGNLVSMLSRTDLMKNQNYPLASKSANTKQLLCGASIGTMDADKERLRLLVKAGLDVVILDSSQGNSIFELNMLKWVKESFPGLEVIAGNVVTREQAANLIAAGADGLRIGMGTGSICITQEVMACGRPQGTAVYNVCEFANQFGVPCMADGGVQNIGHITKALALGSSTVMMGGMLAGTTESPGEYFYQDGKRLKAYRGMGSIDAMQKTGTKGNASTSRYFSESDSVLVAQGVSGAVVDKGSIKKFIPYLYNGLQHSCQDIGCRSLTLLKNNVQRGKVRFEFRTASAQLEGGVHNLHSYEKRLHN

Assays:
Experiment in all cases: pull-down
[1] = target: T1, Pub1 (TAP-tagged version) (S. cerevisiae (TAP-tagged yeast strain)) (UniProt P32588)
T1 sequence: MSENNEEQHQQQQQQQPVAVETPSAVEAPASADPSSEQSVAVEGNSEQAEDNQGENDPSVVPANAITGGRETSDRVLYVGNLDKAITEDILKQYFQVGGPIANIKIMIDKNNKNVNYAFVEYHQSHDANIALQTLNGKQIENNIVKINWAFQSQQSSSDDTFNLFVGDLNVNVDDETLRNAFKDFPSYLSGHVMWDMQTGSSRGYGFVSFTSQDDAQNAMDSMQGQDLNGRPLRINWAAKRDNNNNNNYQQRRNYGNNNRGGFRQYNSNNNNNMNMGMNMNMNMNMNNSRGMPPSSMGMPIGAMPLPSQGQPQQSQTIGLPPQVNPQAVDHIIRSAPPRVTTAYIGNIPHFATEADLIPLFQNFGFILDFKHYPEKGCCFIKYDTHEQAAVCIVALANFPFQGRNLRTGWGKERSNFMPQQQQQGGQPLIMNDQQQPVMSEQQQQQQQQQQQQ

[2] = target: T2, Puf4 (TAP-tagged version) (S. cerevisiae (TAP-tagged yeast strain)) (UniProt P25339)
T2 sequence: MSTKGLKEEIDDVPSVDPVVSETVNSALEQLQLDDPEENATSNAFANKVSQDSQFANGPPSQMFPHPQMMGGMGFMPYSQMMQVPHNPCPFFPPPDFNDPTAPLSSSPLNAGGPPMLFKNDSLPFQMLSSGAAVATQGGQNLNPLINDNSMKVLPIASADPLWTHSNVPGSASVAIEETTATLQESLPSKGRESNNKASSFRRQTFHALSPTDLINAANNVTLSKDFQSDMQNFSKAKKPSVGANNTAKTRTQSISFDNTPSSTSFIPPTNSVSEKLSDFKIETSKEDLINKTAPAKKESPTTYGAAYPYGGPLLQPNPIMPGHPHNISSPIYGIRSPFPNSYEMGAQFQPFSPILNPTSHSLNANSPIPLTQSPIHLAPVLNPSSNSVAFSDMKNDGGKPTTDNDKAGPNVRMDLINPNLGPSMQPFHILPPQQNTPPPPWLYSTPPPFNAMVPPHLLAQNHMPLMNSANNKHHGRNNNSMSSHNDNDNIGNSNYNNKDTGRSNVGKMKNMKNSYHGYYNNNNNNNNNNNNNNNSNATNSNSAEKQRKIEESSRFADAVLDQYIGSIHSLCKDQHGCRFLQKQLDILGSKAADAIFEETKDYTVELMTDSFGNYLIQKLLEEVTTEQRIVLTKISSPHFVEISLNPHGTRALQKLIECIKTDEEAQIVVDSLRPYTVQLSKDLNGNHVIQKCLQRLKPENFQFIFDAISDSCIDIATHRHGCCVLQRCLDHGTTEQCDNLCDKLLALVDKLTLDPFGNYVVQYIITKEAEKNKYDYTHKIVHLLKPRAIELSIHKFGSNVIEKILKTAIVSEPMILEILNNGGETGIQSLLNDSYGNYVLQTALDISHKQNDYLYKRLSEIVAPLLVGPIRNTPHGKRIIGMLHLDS

[3] = target: Imd2-TAP (S. cerevisiae (TAP-tagged yeast strain)) (UniProt P38697)
[4] = target: T3, Nrd1 (TAP-tagged version) (S. cerevisiae (TAP-tagged yeast strain)) (UniProt P53617)
T3 sequence: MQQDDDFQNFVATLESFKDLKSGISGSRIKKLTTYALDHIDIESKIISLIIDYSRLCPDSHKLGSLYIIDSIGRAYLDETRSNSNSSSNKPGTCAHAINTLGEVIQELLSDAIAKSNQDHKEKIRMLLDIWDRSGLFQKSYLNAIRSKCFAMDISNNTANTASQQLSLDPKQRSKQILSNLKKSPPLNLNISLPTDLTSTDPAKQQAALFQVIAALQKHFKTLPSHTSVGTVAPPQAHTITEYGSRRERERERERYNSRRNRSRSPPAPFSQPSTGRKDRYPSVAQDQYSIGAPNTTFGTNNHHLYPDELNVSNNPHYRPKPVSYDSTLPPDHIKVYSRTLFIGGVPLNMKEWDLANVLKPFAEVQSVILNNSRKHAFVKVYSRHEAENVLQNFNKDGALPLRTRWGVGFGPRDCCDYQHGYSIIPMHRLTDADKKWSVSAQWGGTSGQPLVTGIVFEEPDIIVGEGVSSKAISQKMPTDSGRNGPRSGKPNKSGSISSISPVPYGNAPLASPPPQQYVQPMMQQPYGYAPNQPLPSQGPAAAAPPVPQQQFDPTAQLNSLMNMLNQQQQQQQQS

Measured: binding

B1: Rpb4 (protein, UniProt P20433 1-221)
chain: MNVSTSTFQTRRRRLKKVEEEENAATLQLGQEFQLKQINHQGEEEELIALNLSEARLVIKEALVERRRAFKRSQKKHKKKHLKHENANDETTAVEDEDDDLDEDDVNADDDDFMHSETREKELESIDVLLEQTTGGNNKDLKNTMQYLTNFSRFRDQETVGAVIQLLKSTGLHPFEVAQLGSLACDTADEAKTLIPSLNNKISDDELERILKELSNLETLY
no binding: [1] | [2] | [3] | [4]
